This passage reports log2 fold change results from the supplement of paper PMC10849652.

Protein sequences, listed by entry. Tags and fused reporters are not part of them. Lines headed by an entry give the natural chain unless they say otherwise; changes in a name come on top.
UniProt P52594: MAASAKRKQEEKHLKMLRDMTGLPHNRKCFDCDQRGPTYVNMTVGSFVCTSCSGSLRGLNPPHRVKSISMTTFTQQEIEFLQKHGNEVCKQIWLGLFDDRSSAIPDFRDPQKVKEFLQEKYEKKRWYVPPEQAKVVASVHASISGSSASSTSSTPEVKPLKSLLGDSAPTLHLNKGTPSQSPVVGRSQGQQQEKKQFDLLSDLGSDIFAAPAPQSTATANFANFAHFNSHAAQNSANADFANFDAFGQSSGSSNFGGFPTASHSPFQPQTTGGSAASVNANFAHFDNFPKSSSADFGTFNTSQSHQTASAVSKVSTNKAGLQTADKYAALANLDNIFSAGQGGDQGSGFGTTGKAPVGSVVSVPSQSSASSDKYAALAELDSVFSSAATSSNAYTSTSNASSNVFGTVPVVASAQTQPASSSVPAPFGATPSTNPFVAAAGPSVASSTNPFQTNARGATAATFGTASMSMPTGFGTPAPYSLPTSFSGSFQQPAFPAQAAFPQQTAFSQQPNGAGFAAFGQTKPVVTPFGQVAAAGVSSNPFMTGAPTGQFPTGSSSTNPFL
UniProt Q96BJ3: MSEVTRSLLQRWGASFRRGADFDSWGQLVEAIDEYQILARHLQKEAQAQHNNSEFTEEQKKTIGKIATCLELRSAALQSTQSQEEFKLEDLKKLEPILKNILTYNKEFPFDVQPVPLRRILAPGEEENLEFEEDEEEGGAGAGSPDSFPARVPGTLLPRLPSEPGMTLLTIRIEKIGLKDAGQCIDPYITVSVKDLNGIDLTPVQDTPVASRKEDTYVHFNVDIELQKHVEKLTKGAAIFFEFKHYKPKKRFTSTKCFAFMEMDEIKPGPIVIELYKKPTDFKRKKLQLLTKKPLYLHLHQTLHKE
UniProt Q9ULX6: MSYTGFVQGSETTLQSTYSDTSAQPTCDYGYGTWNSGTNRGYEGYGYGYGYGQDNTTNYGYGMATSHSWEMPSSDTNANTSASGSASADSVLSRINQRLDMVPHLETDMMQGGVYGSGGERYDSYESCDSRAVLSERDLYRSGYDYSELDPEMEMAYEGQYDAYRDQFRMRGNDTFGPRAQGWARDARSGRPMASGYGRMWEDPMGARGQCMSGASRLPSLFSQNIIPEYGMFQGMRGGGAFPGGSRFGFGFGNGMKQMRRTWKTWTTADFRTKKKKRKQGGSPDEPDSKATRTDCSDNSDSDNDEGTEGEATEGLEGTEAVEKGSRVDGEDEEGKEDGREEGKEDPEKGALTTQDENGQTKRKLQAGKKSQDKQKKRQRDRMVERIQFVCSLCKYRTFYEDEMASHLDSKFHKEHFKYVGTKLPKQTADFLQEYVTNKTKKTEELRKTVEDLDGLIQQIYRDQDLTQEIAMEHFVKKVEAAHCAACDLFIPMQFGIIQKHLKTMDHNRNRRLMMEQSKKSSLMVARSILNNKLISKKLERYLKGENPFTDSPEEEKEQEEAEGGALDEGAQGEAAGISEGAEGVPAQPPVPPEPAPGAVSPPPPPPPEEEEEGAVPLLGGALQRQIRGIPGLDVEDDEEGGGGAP
UniProt P23526: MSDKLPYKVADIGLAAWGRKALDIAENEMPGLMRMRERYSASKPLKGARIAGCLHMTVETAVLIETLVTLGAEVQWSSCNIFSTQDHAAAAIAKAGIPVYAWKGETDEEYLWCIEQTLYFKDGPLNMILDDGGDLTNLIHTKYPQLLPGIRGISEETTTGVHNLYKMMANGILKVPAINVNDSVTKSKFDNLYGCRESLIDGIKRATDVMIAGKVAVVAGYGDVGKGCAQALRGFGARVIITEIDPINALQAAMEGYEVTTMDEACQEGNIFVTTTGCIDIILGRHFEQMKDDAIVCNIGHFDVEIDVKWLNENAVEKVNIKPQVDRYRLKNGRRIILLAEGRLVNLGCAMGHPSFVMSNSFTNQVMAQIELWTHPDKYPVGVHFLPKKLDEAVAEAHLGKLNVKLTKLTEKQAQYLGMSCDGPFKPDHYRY
UniProt P51649: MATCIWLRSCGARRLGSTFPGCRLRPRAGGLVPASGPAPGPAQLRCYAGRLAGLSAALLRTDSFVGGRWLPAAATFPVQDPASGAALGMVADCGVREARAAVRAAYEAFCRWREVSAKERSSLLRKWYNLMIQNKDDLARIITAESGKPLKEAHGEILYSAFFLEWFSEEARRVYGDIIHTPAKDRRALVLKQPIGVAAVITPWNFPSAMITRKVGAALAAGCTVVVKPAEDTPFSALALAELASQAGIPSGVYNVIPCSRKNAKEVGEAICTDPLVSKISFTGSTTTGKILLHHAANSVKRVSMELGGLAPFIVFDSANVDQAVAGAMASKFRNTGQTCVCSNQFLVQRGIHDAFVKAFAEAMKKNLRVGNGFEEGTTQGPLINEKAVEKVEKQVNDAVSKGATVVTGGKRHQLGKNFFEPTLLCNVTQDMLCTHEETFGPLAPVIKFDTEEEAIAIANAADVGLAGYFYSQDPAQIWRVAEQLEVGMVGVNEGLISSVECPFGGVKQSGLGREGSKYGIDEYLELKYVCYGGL
UniProt P31749: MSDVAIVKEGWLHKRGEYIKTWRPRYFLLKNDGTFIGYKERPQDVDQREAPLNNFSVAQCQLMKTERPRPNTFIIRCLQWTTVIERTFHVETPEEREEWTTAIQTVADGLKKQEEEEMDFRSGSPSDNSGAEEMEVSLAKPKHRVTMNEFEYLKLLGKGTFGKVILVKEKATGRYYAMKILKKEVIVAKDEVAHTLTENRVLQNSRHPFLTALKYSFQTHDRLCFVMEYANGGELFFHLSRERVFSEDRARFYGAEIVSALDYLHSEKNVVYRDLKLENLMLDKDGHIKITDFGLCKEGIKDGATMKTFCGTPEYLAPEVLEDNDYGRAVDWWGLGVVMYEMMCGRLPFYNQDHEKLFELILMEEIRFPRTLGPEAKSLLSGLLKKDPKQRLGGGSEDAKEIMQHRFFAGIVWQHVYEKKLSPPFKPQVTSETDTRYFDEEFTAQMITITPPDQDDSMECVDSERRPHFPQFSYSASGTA
UniProt Q99943: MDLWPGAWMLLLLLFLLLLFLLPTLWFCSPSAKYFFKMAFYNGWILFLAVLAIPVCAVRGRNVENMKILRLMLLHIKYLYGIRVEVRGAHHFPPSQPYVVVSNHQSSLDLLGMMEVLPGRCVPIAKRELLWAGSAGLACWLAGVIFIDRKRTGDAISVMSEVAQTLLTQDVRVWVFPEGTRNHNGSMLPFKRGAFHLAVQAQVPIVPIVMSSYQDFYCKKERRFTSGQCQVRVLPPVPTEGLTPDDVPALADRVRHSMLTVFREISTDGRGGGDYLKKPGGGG
UniProt Q9C0C7: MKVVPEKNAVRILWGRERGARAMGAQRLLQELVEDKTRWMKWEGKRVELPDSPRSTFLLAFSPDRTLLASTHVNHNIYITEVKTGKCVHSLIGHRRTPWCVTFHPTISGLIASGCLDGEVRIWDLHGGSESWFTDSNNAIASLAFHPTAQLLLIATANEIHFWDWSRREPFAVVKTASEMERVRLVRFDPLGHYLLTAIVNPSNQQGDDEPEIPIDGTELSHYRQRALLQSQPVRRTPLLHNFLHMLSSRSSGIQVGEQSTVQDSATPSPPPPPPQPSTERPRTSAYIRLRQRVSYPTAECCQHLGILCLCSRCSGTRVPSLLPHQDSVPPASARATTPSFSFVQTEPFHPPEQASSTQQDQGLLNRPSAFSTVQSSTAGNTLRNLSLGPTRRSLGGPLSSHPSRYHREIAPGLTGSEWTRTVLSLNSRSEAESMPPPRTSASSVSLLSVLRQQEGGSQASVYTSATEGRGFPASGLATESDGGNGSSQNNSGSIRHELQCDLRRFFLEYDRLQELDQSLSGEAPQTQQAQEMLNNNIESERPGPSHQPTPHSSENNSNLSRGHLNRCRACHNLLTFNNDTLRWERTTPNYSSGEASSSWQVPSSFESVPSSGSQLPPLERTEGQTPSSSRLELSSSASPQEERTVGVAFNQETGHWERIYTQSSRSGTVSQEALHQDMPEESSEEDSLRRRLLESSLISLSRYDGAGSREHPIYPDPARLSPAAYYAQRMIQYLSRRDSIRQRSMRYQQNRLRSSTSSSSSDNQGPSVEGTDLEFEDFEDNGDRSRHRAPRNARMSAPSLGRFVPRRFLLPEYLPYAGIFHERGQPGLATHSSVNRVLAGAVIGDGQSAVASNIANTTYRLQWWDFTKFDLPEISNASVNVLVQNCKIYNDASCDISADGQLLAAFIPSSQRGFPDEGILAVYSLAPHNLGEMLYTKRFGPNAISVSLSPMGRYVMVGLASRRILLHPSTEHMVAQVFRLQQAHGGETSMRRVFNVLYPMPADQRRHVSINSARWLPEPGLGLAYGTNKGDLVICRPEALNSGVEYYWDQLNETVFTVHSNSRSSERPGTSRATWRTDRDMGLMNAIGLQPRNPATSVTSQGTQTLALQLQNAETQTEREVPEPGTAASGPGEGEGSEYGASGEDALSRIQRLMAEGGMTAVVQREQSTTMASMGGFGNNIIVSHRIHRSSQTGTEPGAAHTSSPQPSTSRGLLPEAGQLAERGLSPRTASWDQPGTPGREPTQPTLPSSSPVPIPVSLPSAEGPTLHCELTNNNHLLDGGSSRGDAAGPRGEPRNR
UniProt Q9NYG5, whole entry, looked up: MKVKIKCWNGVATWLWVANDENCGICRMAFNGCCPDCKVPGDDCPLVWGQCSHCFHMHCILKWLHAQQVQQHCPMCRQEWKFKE
UniProt Q96HN2, whole entry, looked up: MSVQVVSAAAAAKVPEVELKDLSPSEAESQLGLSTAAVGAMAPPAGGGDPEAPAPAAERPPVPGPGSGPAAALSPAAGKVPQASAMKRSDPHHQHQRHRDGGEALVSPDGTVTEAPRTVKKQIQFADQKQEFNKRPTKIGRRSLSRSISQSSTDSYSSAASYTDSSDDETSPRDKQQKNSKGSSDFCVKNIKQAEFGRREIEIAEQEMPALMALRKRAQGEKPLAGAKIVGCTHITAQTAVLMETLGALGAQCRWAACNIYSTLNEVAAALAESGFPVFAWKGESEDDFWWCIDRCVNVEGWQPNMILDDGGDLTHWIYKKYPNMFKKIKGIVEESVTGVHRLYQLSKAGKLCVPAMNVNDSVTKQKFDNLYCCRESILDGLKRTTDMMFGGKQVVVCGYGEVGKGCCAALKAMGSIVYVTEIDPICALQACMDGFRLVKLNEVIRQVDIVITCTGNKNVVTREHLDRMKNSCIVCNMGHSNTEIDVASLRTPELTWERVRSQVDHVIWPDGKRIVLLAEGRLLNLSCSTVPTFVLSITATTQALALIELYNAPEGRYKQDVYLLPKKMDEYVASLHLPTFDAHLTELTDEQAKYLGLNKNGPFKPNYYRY
UniProt Q9Y673: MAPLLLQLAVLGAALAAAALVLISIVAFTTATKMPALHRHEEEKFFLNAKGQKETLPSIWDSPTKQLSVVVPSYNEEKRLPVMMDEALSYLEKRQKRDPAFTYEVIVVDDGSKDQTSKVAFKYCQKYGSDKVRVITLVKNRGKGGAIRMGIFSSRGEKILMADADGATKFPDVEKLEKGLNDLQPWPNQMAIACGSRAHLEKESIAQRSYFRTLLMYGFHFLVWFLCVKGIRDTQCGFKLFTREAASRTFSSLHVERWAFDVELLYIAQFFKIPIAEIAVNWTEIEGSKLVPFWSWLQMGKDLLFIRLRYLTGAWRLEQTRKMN
UniProt Q9BVK2: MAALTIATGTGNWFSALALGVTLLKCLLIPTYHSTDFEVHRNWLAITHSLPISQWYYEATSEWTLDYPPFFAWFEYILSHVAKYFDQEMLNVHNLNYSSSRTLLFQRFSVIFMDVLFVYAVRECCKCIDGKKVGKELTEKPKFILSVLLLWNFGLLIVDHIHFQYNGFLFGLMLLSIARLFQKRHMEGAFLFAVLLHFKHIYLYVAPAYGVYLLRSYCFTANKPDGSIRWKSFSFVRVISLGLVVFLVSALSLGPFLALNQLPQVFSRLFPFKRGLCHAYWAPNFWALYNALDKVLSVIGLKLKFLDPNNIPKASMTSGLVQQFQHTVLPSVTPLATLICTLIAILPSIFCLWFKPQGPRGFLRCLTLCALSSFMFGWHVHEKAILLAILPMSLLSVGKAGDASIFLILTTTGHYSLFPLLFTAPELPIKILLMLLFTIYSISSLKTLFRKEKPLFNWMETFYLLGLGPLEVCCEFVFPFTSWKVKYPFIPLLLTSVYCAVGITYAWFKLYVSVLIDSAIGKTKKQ
UniProt P00352: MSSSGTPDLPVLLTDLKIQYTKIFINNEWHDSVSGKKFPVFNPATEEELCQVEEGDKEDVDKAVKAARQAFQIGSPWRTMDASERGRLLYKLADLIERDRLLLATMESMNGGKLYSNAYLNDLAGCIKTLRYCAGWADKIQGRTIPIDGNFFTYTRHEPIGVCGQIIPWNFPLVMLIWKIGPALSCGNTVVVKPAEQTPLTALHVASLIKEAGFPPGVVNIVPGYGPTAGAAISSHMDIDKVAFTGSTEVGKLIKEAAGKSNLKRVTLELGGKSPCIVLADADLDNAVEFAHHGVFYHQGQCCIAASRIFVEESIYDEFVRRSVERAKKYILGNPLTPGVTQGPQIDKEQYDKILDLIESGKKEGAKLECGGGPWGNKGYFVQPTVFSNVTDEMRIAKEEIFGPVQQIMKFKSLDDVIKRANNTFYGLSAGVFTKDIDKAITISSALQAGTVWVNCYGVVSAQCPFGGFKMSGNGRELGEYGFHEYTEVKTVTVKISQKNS

Some of the results follow.

Compound in this test: CC1=C2C(=CC=C1)N=C(N(C2=O)C3=CC=CC=C3C)CN4C=NC5=C(N=CN=C54)N
The test is described as follows: log2 fold change, soluble protein after heating vs DMSO (PISA); higher = thermal stabilisation; K562 cells, 10 uM, 30 min; active = over 0.2 and 3.5 SD of the protein, either way, in both replicates (recomputed). In short, it runs like this:
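K562 cells at 2×10^6 cells/mL were given 10 μM compound for 30 min. Aliquots then went through 3 min of heating across 48°C-58°C, were pooled, and were extracted in PBS with 0.5% NP-40 at 4°C, and the supernatant after 21,000xg for 90 min was quantified by TMTpro 16plex LC-MS/MS with channel sums equalised. Thermal stability relative to control samples, from duplicates, is given as log2 fold change.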
For the target AGFG1 isoform 4 (UniProt P52594), the log2 fold change was inactive: 0.148.

Consider AGO3 (UniProt Q9H9G7), for which the log2 fold change is inactive: -0.004.

On to AIDA (UniProt Q96BJ3), for which the log2 fold change is inactive: 0.061.

Regarding AKAP8L (UniProt Q9ULX6), the log2 fold change is inactive: 0.054.

Turning to AHCY (UniProt P23526), the log2 fold change is inactive: 0.019.

In the case of AMFR (UniProt Q9UKV5), the log2 fold change was inactive: 0.023.

As to ALDH5A1 isoform 2 (UniProt P51649), the log2 fold change was inactive: 0.003.

AHNAK (UniProt Q09666): the log2 fold change is inactive: 0.024.

Turning to AIP (UniProt O00170), the log2 fold change is inactive: 0.042.

On to AKT1 (UniProt P31749), for which the log2 fold change was inactive: 0.034.

Regarding AKR1B1 (UniProt P15121), the log2 fold change was inactive: 0.006.

AGPAT1 (UniProt Q99943): the log2 fold change was inactive: 0.103.

For the target AMBRA1 isoform 5 (UniProt Q9C0C7), the log2 fold change is inactive: -0.302.

Regarding ANAPC11 (UniProt Q9NYG5), the log2 fold change is inactive: -0.024.

For the target ADD3 (UniProt Q9UEY8), the log2 fold change is inactive: 0.023.

With AHCYL2 (UniProt Q96HN2), the log2 fold change was inactive: 0.013.

On to ALG5 (UniProt Q9Y673), for which the log2 fold change was inactive: 0.082.

In the case of ALDH9A1 (UniProt P49189), the log2 fold change was inactive: 0.03.

In the case of ALG8 (UniProt Q9BVK2), the log2 fold change is inactive: 0.

As to ALDH4A1 (UniProt P30038), the log2 fold change is inactive: 0.011.

Turning to AGO4 (UniProt Q9HCK5), the log2 fold change was inactive: 0.041.

As for AMPD2 (UniProt Q01433), the log2 fold change is inactive: 0.037.

For ALDH1A1 (UniProt P00352), the log2 fold change is inactive: 0.02.
